A short description of this data set: Fluorescence Correlation Spectroscopy (FCS) analysis of the fluoromodules. It is filed as physicochemical. The settings on record: fluorogen 200 nM, aptamer 1 μM.

Take `CN(C)c1ccc2c(-c3ccccc3C(=O)[O-])c3ccc(N(C)C)cc3[o+]c2c1` [Tetramethylrhodamine]: the “n (number of emissive species per excitation volume)” value was 11.64.

The record behind these values is patent US20250314643A1, “FLUORESCENT COMPLEXES COMPRISING TWO RHODAMINE DERIVATIVES AND A NUCLEIC ACID MOLECULE” (CENTRE NATIONAL DE LA RECHERCHE SCIENTIFIQUE, priority 2019, published 2025).
